Laboratory results as given in article PMC7593272.

Biological target: T1, response regulator Awo_c25920 (Reg) (Acetobacterium woodii) (UniProt H6LEQ6)
T1 sequence (looked up): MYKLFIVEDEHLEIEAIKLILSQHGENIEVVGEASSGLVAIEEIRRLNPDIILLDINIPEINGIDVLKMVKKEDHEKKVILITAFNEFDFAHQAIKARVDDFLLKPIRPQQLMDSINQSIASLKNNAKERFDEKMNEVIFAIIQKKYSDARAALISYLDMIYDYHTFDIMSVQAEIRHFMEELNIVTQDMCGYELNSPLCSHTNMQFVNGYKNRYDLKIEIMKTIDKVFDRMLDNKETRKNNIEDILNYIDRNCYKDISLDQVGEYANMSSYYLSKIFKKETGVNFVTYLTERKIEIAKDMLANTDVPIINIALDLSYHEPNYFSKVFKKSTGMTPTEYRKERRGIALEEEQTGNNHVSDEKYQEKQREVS
Experiment: EMSA
Details: protein phosphorylated with acetyl phosphate, 0-10 ug, 50 ng DNA, 5 mM MgCl2; EMSA in 12 ul buffer B: 50 mM Tris-HCl, 125 mM NaCl, 10 mM glycerol, 5 mM MgCl2, pH 7.8; 6% native PAGE in 1X TAE at 4 C, ethidium bromide stain; recombinant protein; residues 1-371; probe letters rebuilt from the primers and the genome

ATAGTTCACAACTTTTGGATACTTAATTAGTATAATAGAATGGCATTTTTTTTGCAAGGTTTTTTTATAAAAAAAGCAGAAAAAAATAAATTTTTAATAGATAGCAATGTTTTGAATGGAAAAATACTGTTTAAAAGGCGTTATTTAAGAAAAAACGGTGATATTGCTTGCAACCTATAAAATACGGAAATGTTTAATTAAGAGGTGTCAAGAAAATATCTGCTTTATCAAAAATACGCATATATTCAAAAAAACGAAGCAATATAATACTGATACACAGCAAAATAGTCTAAAATGTCAAAAATAATGTCAAAAAATCCCTGTTTGTGTTATAATATTTTCAATGGAAAACGATTTTGAAATAAGAATTATGGGATTATTGTCTAAAGGGGTTGTTTT (double strand) [399 bp region upstream of Awo_c25930 (histidine kinase)]
binding result: binds

Protein sequences can lack the tags named with them.
